The results in this text go back to PubChem BioAssay AID256 (DTP/NCI, 2004).

Structures are written as SMILES. The list is a part of this screen's results and no random one: it is rich in T/C values a quarter to a half above the control, in often repeated tests (any T/C) and in doses without a T/C. Other doses and runs of a compound stand elsewhere. T/C: endpoint of the treated group in % of that of the vehicle group. Some doses have a count of surviving animals in place of a T/C: the source holds a T/C of zero for them, seemingly a mark for toxic or unscored doses. Some survivor counts are full or nearly so, which does not show that the dose was tolerated: survival well below the control is almost never listed, so the zero probably covers shortened survival too. Counts of survivors are from the toxicity check (mostly the fifth day) where no day follows; animals may have died later. Schedule codes are those of the source, taken here to give the interval after Q, in days (D) or hours (H), and the number of doses after X. For survival time, the PubChem record calls one and a half times the control and up active, and a quarter to a half above the control has no call in these data; cut-offs in other NCI protocols can differ. Some T/C values are followed by the survivors on the day toxicity was checked, most often the fifth; where none is given, no animal had died by that day. Some entries were tested several times; the results are listed from low to high.

The test system of the test is CD2F1 mice, L1210 leukemia ip, survival T/C. Kind of test: NCI In Vivo Anticancer Drug Screen. Data for tumor model L1210 Leukemia (intraperitoneal) in CD2F1 (CDF1) mice. As to conditions: higher T/C = longer survival. The procedure:
The antitumor activity of compounds was measured in mice bearing transplantable tumors. Survival or tumor size were measured and the results are expressed as the measurement made in the treated group (T) divided by the measurement made in the vehicle treated control group (C). The tumor model used in this assay is L1210 Leukemia (intraperitoneal) in CD2F1 (CDF1) mice

Where [1] appears, read: T/C endpoint: mean survival time, dose: 200.0 mg/kg/injection, schedule: Q01DX001 (ip), vehicle: saline.
[2] abbreviates: T/C endpoint: mean survival time, dose: 200.0 mg/kg/injection, schedule: Q04DX003 (ip), vehicle: saline with Tween-80.
Setting [3] is: T/C endpoint: mean survival time, dose: 400.0 mg/kg/injection, schedule: Q04DX003 (ip), vehicle: saline with Tween-80.
The mark [4] stands for this setting: T/C endpoint: mean survival time, dose: 200.0 mg/kg/injection, schedule: Q04DX003 (ip), vehicle: saline.
The mark [5] stands for this setting: T/C endpoint: mean survival time, dose: 400.0 mg/kg/injection, schedule: Q04DX003 (ip), vehicle: saline.
[6] abbreviates: T/C endpoint: mean survival time, dose: 200.0 mg/kg/injection, schedule: Q01DX009 (ip), vehicle: saline with Tween-80.
The mark [7] stands for this setting: T/C endpoint: mean survival time, dose: 100.0 mg/kg/injection, schedule: Q01DX009 (ip), vehicle: saline with Tween-80.
The mark [8] stands for this setting: T/C endpoint: mean survival time, dose: 200.0 mg/kg/injection, schedule: Q04DX002 (ip), vehicle: saline with Tween-80.
The mark [9] stands for this setting: T/C endpoint: median survival time, dose: 400.0 mg/kg/injection, schedule: Q01DX009 (ip), vehicle: saline with Tween-80.
Where [10] appears, read: T/C endpoint: mean survival time, dose: 200.0 mg/kg/injection, schedule: Q01DX009 (ip), vehicle: saline.
[11] abbreviates: T/C endpoint: mean survival time, dose: 200.0 mg/kg/injection, schedule: Q01DX009 (ip), vehicle: water.

As for `[Cl][Sn]([c]1ccccc1)([c]1ccccc1)[c]1ccccc1`, the survivor count is, setting by setting: (T/C endpoint: mean survival time, dose: 20.0 mg/kg/injection, schedule: Q04DX003 (ip), vehicle: saline with Tween-80) 6 of 6; (T/C endpoint: mean survival time, dose: 40.0 mg/kg/injection, schedule: Q04DX003 (ip), vehicle: saline with Tween-80) 2 of 6; (T/C endpoint: mean survival time, dose: 100.0 mg/kg/injection, schedule: Q01DX001 (ip), vehicle: saline) 2 of 4; under setting [1], 0 of 4; (T/C endpoint: mean survival time, dose: 400.0 mg/kg/injection, schedule: Q01DX001 (ip), vehicle: saline) 0 of 4.
Take `CCC1(O)C(=O)OCc2c1cc1n(c2=O)Cc2cc3ccc(C)cc3nc2-1` (stereo unspecified): the T/C runs as follows: (T/C endpoint: median survival time, dose: 20.0 mg/kg/injection, schedule: Q04DX002 (ip), vehicle: saline with Tween-80) 126 % of control; (T/C endpoint: median survival time, dose: 40.0 mg/kg/injection, schedule: Q04DX002 (ip), vehicle: saline with Tween-80) 136 % of control; (T/C endpoint: median survival time, dose: 80.0 mg/kg/injection, schedule: Q04DX002 (ip), vehicle: saline with Tween-80) 133 % of control.
For `c1ccc2nc3c(cc2c1)CCC3`, where the note is “T/C endpoint: mean survival time, dose: 400.0 mg/kg/injection, schedule: Q04DX003 (ip), vehicle: saline + alcohol”, the survivor count was 1 of 3.
In the case of `Nc1ncnc2nc(-c3cccc(CNC(=O)c4ccccc4S(=O)(=O)F)c3)[nH]c12`, the survivor count (T/C endpoint: mean survival time, dose: 200.0 mg/kg/injection, schedule: Q01DX001 (ip), vehicle: saline with Tween-80) was 6 of 6.
As for `Cc1nc(C(=O)O)c(C)c(=O)[nH]1`, the survivor count (T/C endpoint: mean survival time, dose: 400.0 mg/kg/injection, schedule: Q01DX005 (ip), vehicle: water) is 0 of 6.
As to `Oc1ccc(Cl)cc1Sc1cc(Cl)ccc1O`, the survivor count by setting is: (T/C endpoint: mean survival time, dose: 200.0 mg/kg/injection, schedule: Q04DX003 (ip), vehicle: other) 3 of 6; (T/C endpoint: mean survival time, dose: 400.0 mg/kg/injection, schedule: Q04DX003 (ip), vehicle: other) 4 of 6.
With `O=C([O][Hg][C](F)(F)F)C(F)(F)F`, the survivor count is reported as 1 of 3 (T/C endpoint: mean survival time, dose: 12.5 mg/kg/injection, schedule: Q04DX003 (ip), vehicle: saline); 0 of 3 (T/C endpoint: mean survival time, dose: 25.0 mg/kg/injection, schedule: Q04DX003 (ip), vehicle: saline); 0 of 3 (T/C endpoint: mean survival time, dose: 100.0 mg/kg/injection, schedule: Q04DX003 (ip), vehicle: saline with Tween-80); 0 of 3 under setting [2]; 0 of 3 under setting [3].
As to `CS(=O)(=O)Nc1ccc(C(=O)CCN2CCCCCC2)cc1`, the survivor count reads like this: (T/C endpoint: median survival time, dose: 200.0 mg/kg/injection, schedule: Q01DX009 (ip), vehicle: saline) 3 of 6; (T/C endpoint: median survival time, dose: 400.0 mg/kg/injection, schedule: Q01DX009 (ip), vehicle: saline) 5 of 6.
As for `Cc1ccc2c(c1)N(CCCN(C)C)c1ccccc1S2`, the survivor count is listed as 3 of 6 (T/C endpoint: mean survival time, dose: 100.0 mg/kg/injection, schedule: Q04DX003 (ip), vehicle: saline); 0 of 6 under setting [4]; 0 of 6 under setting [5].
On to `OC(CC1=NNC(=S)NC1)(C(F)(F)F)C(F)(F)F`, for which, under setting [6], the survivor count is recorded as 0 of 6.
In the case of `[I][Pt+2][I].[NH-]c1cccc(F)c1.[NH-]c1cccc(F)c1`, the survivor count (T/C endpoint: mean survival time, dose: 200.0 mg/kg/injection, schedule: Q04DX003 (ip), vehicle: distilled water + Tween-80) is 1 of 6.
Consider `CCNC(=S)N(Cc1ccccc1)Cc1ccccc1`, for which the survivor count under setting [2] is reported as 6 of 6.
Take `Cn1cnc([N+](=O)[O-])c1[Se]c1nc(N)nc2nc[nH]c12`: the T/C (T/C endpoint: mean survival time, dose: 11.0 mg/kg/injection, schedule: Q01DX005 (ip), vehicle: water) was 136 % of control; the T/C (T/C endpoint: mean survival time, dose: 12.5 mg/kg/injection, schedule: Q01DX009 (ip), vehicle: water) is 134 % of control; the T/C (T/C endpoint: mean survival time, dose: 16.5 mg/kg/injection, schedule: Q01DX005 (ip), vehicle: water) was 145 % of control.
With `O=c1[nH]c(=O)n(O)c2nc[nH]c12`, under setting [7], the survivor count is listed as 3 of 6.
Turning to `NC(=S)N/N=C/c1ccc(OC(=O)COc2ccccc2)cn1`, the T/C (T/C endpoint: mean survival time, dose: 132.0 mg/kg/injection, schedule: Q04DX003 (ip), vehicle: saline with Tween-80) is 125 % of control; the T/C under setting [8] was 126 % of control; the T/C (T/C endpoint: mean survival time, dose: 300.0 mg/kg/injection, schedule: Q04DX003 (ip), vehicle: saline with Tween-80) was 125 % of control; the T/C (T/C endpoint: mean survival time, dose: 450.0 mg/kg/injection, schedule: Q04DX003 (ip), vehicle: saline with Tween-80) is 141 % of control; the T/C (T/C endpoint: median survival time, dose: 25.0 mg/kg/injection, schedule: Q01DX009 (ip), vehicle: saline with Tween-80) is 131, 144, 156, 172 % of control; the T/C (T/C endpoint: median survival time, dose: 50.0 mg/kg/injection, schedule: Q01DX009 (ip), vehicle: saline with Tween-80) is given as 151, 167, 168, 177, 180 % of control. For the same compound, the T/C was 143 [5 of 6 alive], 169, 173, 183, 184 % of control (T/C endpoint: median survival time, dose: 100.0 mg/kg/injection, schedule: Q01DX009 (ip), vehicle: saline with Tween-80); 130 [5 of 6 alive], 160, 162, 178, 216 % of control (T/C endpoint: median survival time, dose: 200.0 mg/kg/injection, schedule: Q01DX009 (ip), vehicle: saline with Tween-80); 100, 101 [4 of 6 alive], 114, 142 % of control under setting [9]. Further, under setting [9], the survivor count is on record as 4 of 6.
With `COc1ccc(NC(=O)Nc2c(Oc3ccc(Cl)cc3)ccc(Cl)c2S(=O)(=O)O)cc1Cl`, the survivor count runs as follows: under setting [10], 2 of 6; under setting [3], 0 of 6.
`CCCCCCC1CCCCN1` (stereo unspecified): the survivor count is 0 of 3 (T/C endpoint: mean survival time, dose: 100.0 mg/kg/injection, schedule: Q04DX003 (ip), vehicle: Klucel (hydroxypropylcellulose) (HPC)); 0 of 3 (T/C endpoint: mean survival time, dose: 200.0 mg/kg/injection, schedule: Q04DX003 (ip), vehicle: Klucel (hydroxypropylcellulose) (HPC)); 0 of 3 (T/C endpoint: mean survival time, dose: 400.0 mg/kg/injection, schedule: Q04DX003 (ip), vehicle: Klucel (hydroxypropylcellulose) (HPC)).
Consider `CCCC(O)C[N+](=O)[O-]` (stereo unspecified), for which, under “T/C endpoint: mean survival time, dose: 400.0 mg/kg/injection, schedule: Q01DX009 (ip), vehicle: saline”, the survivor count is reported as 1 of 6.
`FC(F)(F)c1ccc(Cl)c(N=C=S)c1`: the survivor count (T/C endpoint: mean survival time, dose: 400.0 mg/kg/injection, schedule: Q04DX002 (ip), vehicle: saline with Tween-80) is listed as 0 of 3.
As for `Cc1ccc(C2OC2C(=O)c2ccccc2)cc1` (stereo unspecified), under setting [8], the survivor count is listed as 3 of 3.
Turning to `Cc1ccc(S(=O)(=O)N/N=C/C(Br)=C(/Br)C(=O)O)cc1`, the survivor count (T/C endpoint: mean survival time, dose: 200.0 mg/kg/injection, schedule: Q01DX009 (ip), vehicle: Klucel (hydroxypropylcellulose) (HPC)) was 5 of 6.
As for `CCCCCCCCCCCCCCCCNS(=O)(=O)c1ccc2sc(SC)nc2c1`, the survivor count (T/C endpoint: mean survival time, dose: 50.0 mg/kg/injection, schedule: Q04DX002 (ip), vehicle: saline with Tween-80) is given as 3 of 3.
Take `CC12CCC(=O)C=C1CCCC2=O` (stereo unspecified): the survivor count under setting [10] is 2 of 6.
Take `COc1cc(C[C@H]2c3cc(OC)c(OC)cc3CCN2C)c(Oc2cc3c(cc2OC)-c2c(OC)c(OC)cc4c2[C@H](C3)N(C)CC4)cc1OC`: the survivor count runs as follows: under setting [1], 10 of 10; under setting [5], 10 of 10.
`COc1cc2ccncc2cc1O`: the survivor count runs as follows: (T/C endpoint: mean survival time, dose: 100.0 mg/kg/injection, schedule: Q01DX009 (ip), vehicle: water) 2 of 6; under setting [11], 0 of 6; (T/C endpoint: mean survival time, dose: 400.0 mg/kg/injection, schedule: Q01DX009 (ip), vehicle: water) 0 of 6.
`C[n+]1ccn(CC(=O)c2ccccc2)c1`: the survivor count is 2 of 6 under setting [4] and 0 of 6 under setting [5].
Turning to `CN(N=O)C(=O)NCC1OC(OC2(CNC(=O)N(C)N=O)OC(CNC(=O)N(C)N=O)C(O)C2O)C(O)C(O)C1O` (stereo unspecified), under setting [11], the T/C was 137 % of control.
Regarding `Cc1ccc(NC(=O)OCCOc2ccccc2Cl)cc1[N+](=O)[O-]`, the survivor count is 3 of 3 under setting [7] and 3 of 3 under setting [6].
